Data published in patent US20040110676A1, “Methods for modulating cell survival” (priority 2000, published 2004).
At least one structure is not confirmed: it was looked up by name or label, or the drawing left a doubt.

Tested on: HBL-100 cells
Experiment: Anoikis assay on poly-HEMA coated plates, annexin-V-FITC/PI
Assay type: cell-based, human
Details: HBL-100 cells transiently transfected with FLAG-tagged constructs; LY294002 10 μM
From the text: The human breast cell line HBL-100, transformed by the SV40 virus large T antigen with epithelial like morphology, was used to investigate the importance of the huntingtin serine residue at position 421 with respect to phosphorylation towards anoikis resistant, anchorage independent cell growth. HBL-100 cells were transfected with a 3949-15wt huntingtin vector construct, or a similar vector in which the normal serine at position 421 was mutated to an alanine residue. This mutation prevents phosphorylation from occurring at that site, which is presumed to be mediated by the kinase AKT/PKB. Cells were cultured in DMEM with 5% serum for 24 hours either on untreated tissue culture plastic or on poly-HEMA-coated plastic plates. Cells were harvested, counted and viability was assessed via annexin-V-FITC and propidium iodide (PI) staining.
HBL-100 cells were transiently transfected with a FLAG-tagged 3949-15wt htt, or a FLAG-tagged (S-A) unphosphorylatable mutant htt. Wild-type cells were also treated with LY294002, a specific PI-3 kinase inhibitor, at a concentration of 10 μM, to determine whether inhibition of kinase function could abrogate the induction of anoikis. Western blot analysis confirming the expression of both full length and 3949 huntingtin in the FLAG-tagged constructs (FIG. 26B). The presence of endogenous huntingtin in the parental cells is also shown. […]

O=c1cc(N2CCOCC2)oc2c(-c3ccccc3)cccc12 [LY294002, reference compound]
anoikis resistant growth in detached state (kinase inhibition study): prevented anoikis resistant cell growth
